Paper PMC10758104
No constants are given. Whether binding was seen depends on the method and setting. Binding seen in cells or lysates may run through a third protein. Some results given as binding are weak or reduced against the parent protein; the word gives no strength. Where a sequence is shown, tags or fusion partners need not be part of it.

Legend:
[1] = target: T1, SLC40A1 (Flag-tagged, overexpressed in cardiomyocytes of Slc40a1 transgenic mice) (UniProt Q9JHI9); assay: co-IP; fresh mouse hearts homogenized and lysed; immunoprecipitation with Flag or Steap4 antibody overnight at 4 °C, protein A/G magnetic beads; immunoblot with Flag or Steap4 antibody
T1 sequence: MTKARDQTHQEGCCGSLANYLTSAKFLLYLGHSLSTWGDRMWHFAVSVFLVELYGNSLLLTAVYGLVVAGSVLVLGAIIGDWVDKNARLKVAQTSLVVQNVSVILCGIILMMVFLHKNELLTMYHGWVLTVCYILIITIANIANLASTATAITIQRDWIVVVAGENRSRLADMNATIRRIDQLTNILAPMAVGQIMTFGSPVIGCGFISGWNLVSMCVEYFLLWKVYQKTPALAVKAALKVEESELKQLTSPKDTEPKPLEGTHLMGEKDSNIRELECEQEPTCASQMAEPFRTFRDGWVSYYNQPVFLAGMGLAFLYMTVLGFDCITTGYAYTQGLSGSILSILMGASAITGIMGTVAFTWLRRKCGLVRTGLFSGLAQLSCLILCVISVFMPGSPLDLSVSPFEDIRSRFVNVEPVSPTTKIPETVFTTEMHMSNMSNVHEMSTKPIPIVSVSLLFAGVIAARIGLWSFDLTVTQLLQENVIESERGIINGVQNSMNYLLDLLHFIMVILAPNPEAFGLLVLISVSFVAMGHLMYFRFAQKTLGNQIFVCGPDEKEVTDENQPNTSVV

[2] = target: T2, SLC40A1-ECFP (UniProt Q9JHI9); assay: FRET or BRET; SLC40A1-ECFP (donor) and Steap4-EYFP (acceptor) co-transfected in 293T cells; confocal microscopy, normalized FRET
T2 sequence: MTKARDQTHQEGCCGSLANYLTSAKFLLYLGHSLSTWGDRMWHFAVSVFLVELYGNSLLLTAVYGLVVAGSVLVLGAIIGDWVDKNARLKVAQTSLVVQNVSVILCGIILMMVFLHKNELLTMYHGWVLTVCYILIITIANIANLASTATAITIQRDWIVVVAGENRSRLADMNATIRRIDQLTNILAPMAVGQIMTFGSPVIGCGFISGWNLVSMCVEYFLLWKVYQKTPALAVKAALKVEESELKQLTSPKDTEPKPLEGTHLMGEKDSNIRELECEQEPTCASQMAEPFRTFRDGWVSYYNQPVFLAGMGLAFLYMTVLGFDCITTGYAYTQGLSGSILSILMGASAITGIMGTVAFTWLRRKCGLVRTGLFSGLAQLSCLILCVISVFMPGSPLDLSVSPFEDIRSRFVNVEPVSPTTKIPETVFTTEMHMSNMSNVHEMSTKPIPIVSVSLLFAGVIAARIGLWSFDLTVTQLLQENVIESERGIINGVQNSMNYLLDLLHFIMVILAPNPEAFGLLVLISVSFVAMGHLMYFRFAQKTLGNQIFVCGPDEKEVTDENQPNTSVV

| Binder | binding [1] | binding [2] |
| --- | --- | --- |
| Steap4 (six transmembrane epithelial antigen of prostate 4) (protein, UniProt Q923B6 1-470) MEKAHADEFPLTTDSSEKQGVVCIFGTGDFGKSLGLKMLQCGYSIVFGSRNPQVSSLLPRGAEVLSYSEAASKSDIIILAMHREHYDSLTELVDYLKGKVLVDVSNNRKINQYPESNAEYLAQLEPGAHVVKAFNTISAWALQSGTLDASRQVFVCGNDSKAKQRVMDIARTLGLTPLDQGSLMAASEIENYPLQLFPMWRFPFYLSSVLCVFFFVYCAIREVIYPYVNGKTDATYRLAISIPNRVFPITALILLALVYLPGILAAILQLYRGTKYRRFPNWLDHWMLCRKQLGLVALGFAFLHVIYTLVIPIRYYVRWRLRNATITQALTNKDSPFITSYAWINDSYLALGILGFFLFLLLGITSLPSVSNMVNWREFRFVQSKLGYLTLVLCTAHTLVYGGKRFLSPSILRWSLPSAYILALVIPCAVLVLKCILIMPCIDKTLTRIRQGWERNSKYTQSALNGKSDI | binds | – |
| Steap4-EYFP (protein, UniProt Q923B6 1-470) MEKAHADEFPLTTDSSEKQGVVCIFGTGDFGKSLGLKMLQCGYSIVFGSRNPQVSSLLPRGAEVLSYSEAASKSDIIILAMHREHYDSLTELVDYLKGKVLVDVSNNRKINQYPESNAEYLAQLEPGAHVVKAFNTISAWALQSGTLDASRQVFVCGNDSKAKQRVMDIARTLGLTPLDQGSLMAASEIENYPLQLFPMWRFPFYLSSVLCVFFFVYCAIREVIYPYVNGKTDATYRLAISIPNRVFPITALILLALVYLPGILAAILQLYRGTKYRRFPNWLDHWMLCRKQLGLVALGFAFLHVIYTLVIPIRYYVRWRLRNATITQALTNKDSPFITSYAWINDSYLALGILGFFLFLLLGITSLPSVSNMVNWREFRFVQSKLGYLTLVLCTAHTLVYGGKRFLSPSILRWSLPSAYILALVIPCAVLVLKCILIMPCIDKTLTRIRQGWERNSKYTQSALNGKSDI | – | binds |
